Assay results taken from the supplement of paper PMC10849652.
Some of the results follow.

The chains behind the UniProt entries cited, without tags or fusion partners. Where a name states a change or a piece, a line headed by the entry shows the natural chain unless it says otherwise.
UniProt O00764: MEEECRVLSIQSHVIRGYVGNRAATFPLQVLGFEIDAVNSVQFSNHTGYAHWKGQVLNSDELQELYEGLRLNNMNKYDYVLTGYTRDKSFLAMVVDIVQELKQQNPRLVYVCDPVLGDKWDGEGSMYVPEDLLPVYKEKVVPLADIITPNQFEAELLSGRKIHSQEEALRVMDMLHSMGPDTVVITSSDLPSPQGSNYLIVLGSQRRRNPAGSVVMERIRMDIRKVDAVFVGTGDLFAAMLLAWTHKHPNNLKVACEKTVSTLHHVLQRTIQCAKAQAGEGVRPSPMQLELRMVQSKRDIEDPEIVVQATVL
UniProt Q8NCN5: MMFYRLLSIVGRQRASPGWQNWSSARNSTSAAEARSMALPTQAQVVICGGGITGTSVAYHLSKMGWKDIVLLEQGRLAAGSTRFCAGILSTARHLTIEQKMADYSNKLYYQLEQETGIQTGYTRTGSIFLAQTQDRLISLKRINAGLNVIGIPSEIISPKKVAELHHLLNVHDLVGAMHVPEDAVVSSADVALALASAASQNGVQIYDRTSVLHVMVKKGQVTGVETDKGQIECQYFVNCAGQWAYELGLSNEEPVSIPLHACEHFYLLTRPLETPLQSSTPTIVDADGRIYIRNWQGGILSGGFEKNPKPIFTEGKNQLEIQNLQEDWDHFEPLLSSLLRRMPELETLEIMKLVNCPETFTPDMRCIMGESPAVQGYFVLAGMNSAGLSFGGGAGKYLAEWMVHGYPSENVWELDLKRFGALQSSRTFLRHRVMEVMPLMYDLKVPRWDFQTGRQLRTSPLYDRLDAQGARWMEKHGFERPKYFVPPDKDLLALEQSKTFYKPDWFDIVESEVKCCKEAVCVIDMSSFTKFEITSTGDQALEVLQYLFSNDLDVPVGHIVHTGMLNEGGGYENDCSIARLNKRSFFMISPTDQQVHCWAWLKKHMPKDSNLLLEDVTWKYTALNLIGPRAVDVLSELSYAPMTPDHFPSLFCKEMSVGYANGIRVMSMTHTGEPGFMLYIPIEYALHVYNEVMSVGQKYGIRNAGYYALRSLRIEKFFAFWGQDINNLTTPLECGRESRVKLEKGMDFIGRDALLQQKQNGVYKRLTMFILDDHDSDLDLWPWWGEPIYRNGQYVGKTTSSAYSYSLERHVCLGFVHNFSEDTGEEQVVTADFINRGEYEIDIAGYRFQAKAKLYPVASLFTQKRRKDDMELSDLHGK
UniProt P27815: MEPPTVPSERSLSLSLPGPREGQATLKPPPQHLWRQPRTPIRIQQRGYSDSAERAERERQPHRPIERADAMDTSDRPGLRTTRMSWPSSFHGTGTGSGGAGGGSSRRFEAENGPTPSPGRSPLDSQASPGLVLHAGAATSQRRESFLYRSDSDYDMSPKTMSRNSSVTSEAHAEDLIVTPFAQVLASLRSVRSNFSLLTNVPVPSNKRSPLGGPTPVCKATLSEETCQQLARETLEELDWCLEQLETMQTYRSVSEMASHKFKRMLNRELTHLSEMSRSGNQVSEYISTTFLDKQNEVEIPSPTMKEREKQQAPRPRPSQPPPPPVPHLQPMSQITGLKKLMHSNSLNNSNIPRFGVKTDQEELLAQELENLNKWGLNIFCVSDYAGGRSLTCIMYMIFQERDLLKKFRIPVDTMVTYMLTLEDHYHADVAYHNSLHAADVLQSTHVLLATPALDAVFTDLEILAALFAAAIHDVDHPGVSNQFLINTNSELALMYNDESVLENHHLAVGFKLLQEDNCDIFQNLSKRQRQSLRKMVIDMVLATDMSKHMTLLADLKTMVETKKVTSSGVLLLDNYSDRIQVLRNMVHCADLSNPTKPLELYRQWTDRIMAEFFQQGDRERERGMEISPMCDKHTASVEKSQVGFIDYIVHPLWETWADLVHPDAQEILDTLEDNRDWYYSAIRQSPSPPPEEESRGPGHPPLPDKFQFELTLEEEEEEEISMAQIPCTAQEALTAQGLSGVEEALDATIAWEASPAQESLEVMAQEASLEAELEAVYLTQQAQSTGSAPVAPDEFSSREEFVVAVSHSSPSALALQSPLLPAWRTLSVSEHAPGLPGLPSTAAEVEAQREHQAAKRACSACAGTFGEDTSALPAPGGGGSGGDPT
UniProt Q8IZL8: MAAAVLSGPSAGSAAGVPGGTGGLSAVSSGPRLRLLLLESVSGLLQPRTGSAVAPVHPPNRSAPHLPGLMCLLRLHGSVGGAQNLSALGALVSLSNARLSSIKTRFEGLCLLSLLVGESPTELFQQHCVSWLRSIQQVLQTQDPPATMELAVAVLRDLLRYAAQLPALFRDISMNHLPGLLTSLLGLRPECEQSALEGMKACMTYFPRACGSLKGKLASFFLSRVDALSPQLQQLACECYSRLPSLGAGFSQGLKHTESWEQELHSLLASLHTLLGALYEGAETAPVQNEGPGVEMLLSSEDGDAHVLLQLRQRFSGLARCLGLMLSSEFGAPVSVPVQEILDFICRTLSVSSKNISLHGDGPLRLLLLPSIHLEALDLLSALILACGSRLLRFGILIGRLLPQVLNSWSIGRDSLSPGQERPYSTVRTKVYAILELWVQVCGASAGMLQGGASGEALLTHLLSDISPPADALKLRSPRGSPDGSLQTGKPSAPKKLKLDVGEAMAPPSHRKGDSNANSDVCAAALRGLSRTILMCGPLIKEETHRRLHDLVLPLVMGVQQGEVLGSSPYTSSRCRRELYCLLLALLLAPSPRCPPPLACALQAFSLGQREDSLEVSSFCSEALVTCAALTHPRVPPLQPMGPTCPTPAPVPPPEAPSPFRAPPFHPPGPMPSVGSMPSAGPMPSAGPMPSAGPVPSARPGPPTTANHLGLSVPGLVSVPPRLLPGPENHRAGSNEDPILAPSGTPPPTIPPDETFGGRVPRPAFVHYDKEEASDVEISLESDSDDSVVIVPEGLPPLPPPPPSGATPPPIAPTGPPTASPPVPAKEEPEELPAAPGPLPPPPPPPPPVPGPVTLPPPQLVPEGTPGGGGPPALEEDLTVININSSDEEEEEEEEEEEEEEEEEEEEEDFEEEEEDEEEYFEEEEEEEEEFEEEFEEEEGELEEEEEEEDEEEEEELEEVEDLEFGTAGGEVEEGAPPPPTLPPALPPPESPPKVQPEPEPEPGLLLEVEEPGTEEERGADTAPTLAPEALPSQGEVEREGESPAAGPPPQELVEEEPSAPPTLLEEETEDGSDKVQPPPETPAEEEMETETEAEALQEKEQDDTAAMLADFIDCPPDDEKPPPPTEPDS
UniProt H7BZJ3: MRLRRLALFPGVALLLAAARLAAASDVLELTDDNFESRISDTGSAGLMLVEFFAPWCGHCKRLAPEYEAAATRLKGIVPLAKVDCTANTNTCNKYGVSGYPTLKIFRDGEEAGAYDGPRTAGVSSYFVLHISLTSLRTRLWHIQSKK
UniProt Q9H0N5: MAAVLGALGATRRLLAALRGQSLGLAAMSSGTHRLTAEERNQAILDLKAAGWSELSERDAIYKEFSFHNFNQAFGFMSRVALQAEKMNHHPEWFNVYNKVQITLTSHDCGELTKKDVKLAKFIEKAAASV
UniProt Q9H4Z3: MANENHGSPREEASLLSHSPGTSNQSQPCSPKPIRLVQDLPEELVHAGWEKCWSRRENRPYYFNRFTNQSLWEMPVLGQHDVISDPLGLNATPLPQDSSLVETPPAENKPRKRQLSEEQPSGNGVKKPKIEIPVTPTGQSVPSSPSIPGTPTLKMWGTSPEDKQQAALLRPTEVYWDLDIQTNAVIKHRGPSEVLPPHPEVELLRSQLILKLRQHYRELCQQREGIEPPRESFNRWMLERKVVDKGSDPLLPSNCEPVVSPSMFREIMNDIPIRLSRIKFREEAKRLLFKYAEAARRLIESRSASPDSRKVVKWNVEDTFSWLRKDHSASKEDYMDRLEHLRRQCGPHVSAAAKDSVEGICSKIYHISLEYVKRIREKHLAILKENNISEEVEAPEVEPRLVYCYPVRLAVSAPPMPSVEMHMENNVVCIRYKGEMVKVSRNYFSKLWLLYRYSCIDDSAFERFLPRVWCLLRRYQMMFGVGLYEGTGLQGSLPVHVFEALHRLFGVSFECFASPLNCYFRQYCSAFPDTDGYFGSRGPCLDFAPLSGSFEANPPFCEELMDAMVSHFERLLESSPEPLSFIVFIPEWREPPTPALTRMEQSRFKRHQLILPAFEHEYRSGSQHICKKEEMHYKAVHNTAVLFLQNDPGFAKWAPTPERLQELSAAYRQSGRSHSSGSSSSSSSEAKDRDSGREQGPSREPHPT
UniProt Q96KB5: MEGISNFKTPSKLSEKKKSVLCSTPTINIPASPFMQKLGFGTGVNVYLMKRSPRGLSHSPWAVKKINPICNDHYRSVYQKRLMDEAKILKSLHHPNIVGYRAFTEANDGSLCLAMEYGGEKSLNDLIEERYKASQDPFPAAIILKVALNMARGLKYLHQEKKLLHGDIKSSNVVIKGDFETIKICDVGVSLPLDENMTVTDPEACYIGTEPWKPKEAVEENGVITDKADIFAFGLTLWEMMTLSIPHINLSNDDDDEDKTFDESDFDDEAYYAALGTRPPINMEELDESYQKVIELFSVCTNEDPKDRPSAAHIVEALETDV
UniProt Q96RG2: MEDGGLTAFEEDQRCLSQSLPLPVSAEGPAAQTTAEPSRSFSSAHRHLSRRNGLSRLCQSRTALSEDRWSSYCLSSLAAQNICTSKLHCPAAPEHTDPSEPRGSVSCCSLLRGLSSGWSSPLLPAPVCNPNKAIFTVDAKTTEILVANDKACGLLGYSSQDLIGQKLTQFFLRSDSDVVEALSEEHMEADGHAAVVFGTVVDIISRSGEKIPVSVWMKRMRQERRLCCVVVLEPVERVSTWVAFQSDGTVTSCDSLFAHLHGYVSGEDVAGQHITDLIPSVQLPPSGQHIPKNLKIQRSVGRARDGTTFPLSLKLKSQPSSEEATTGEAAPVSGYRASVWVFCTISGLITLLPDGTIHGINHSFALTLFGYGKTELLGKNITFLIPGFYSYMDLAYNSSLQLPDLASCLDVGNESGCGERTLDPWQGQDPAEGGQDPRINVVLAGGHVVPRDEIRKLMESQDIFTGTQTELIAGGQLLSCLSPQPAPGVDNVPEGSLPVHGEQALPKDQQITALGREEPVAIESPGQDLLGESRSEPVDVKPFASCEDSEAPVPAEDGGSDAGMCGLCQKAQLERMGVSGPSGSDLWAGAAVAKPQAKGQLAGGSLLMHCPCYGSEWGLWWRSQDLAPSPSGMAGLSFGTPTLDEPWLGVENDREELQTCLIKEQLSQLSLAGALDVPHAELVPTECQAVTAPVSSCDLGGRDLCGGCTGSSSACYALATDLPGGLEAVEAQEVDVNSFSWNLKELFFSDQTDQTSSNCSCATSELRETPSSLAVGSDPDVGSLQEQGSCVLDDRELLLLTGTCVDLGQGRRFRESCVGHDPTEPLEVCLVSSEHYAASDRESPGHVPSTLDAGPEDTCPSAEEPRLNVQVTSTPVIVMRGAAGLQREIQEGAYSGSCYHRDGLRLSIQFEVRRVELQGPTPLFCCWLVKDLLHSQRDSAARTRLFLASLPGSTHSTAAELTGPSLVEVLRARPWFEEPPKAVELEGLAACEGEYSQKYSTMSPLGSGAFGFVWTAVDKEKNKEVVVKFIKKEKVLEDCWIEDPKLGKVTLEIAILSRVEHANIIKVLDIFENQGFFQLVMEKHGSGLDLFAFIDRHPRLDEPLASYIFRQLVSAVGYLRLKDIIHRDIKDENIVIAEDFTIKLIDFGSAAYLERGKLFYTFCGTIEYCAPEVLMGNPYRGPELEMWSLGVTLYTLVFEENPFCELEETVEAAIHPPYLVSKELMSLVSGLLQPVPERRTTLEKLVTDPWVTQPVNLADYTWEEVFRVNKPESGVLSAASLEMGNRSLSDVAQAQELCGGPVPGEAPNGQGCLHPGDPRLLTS
UniProt Q32M88: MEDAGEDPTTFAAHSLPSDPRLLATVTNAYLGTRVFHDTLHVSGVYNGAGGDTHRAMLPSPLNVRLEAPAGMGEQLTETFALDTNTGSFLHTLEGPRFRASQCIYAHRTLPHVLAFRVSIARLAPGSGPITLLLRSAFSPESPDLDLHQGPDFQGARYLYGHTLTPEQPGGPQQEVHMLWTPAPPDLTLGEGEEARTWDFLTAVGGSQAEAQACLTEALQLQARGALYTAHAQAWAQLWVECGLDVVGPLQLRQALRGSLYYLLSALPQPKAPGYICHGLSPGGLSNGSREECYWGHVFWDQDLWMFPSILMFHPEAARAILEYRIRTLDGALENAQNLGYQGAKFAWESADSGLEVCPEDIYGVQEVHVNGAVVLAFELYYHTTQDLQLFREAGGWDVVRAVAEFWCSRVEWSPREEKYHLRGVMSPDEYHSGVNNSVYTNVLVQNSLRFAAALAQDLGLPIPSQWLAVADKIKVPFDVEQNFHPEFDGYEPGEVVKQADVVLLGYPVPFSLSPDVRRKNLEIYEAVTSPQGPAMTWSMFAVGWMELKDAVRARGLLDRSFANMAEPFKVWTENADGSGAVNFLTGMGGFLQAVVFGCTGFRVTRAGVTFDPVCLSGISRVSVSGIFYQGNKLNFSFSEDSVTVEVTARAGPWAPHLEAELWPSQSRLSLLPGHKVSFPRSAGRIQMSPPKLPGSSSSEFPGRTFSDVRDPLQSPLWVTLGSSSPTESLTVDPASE

Key:
Test in all cases: log2 fold change, soluble protein after heating vs DMSO (PISA); higher = thermal stabilisation; K562 lysate, 10 uM; active = over 0.2 and 3.5 SD of the protein, either way, in both replicates (recomputed)
[1] = compound: C1=CC=C(C=C1)[C@H](COC2=CC3=C(C=C2)NC(=O)N3)NC(=O)C4=CC=CN(C4=O)CC5=CC(=C(C=C5)F)F
Method in brief: (§1)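 Following dounce homogenisation of K562 pellets in PBS pH 7.4 with 1 mM MgCl2, crude extract at 1 mg/mL protein was incubated for 30 min with 10 μM compound. Aliquots were then heated for 3 min over 48°C-58°C and pooled, NP-40 was added to 0.5% at 4°C, and soluble protein was recovered as the supernatant at 21,000xg for 90 min. Channel-sum-equalised TMTpro 16plex LC-MS/MS quantified this protein. Each value, from duplicates, is a log-two fold change in thermal stability relative to solvent controls.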

[2] = compound: CC1=C(SC2=C1C(=N[C@H](C3=NN=C(N32)C)CC(=O)N)C4=CC=C(C=C4)Cl)C
Method in brief: as §1

[3] = compound: CC1=C2C(=CC=C1)N=C(N(C2=O)C3=CC=CC=C3C)CN4C=NC5=C(N=CN=C54)N
Method in brief: as §1

[4] = compound: Cc1sc2c(c1C)C(c1ccc(Cl)cc1)=N[C@@H](CC(=O)OC(C)(C)C)c1nnc(C)n1-2
Method in brief: as §1

[5] = compound: c1ccc([C@@H]2C[C@H]2NC2CCNCC2)cc1
Method in brief: as §1

Measured: log2 fold change

PDXK (UniProt O00764)
inactive: [1] 0.014 | [2] -0.039 | [3] -0.029 | [4] -0.028 | [5] -0.056

PDPR (UniProt Q8NCN5)
inactive: [1] 0.044 | [2] -0.025 | [3] 0.026 | [4] 0.001 | [5] -0.02

PDE4A (UniProt P27815)
inactive: [1] -0.146 | [2] -0.035 | [3] 0.078 | [4] -0.06 | [5] -0.084

PCLAF (UniProt Q15004)
inactive: [1] 0.053 | [2] 0.016 | [3] -0.037 | [4] -0.059 | [5] -0.039

PFKP (UniProt Q01813)
inactive: [1] -0.005 | [2] 0.02 | [3] 0.043 | [4] -0.031 | [5] 0.027

PELP1 (UniProt Q8IZL8)
inactive: [1] -0.009 | [2] -0.083 | [3] -0.059 | [4] -0.069 | [5] 0.045

PDIA3 (UniProt H7BZJ3)
inactive: [1] 0.131 | [2] 0.078 | [3] 0.058 | [4] -0.009 | [5] -0.032

PARP16 isoform 3 (UniProt Q8N5Y8)
inactive: [1] -0.036 | [2] 0.071 | [3] -0.038 | [4] 0.059 | [5] -0.048

PCBD2 (UniProt Q9H0N5)
inactive: [1] -0.019 | [2] 0.048 | [3] 0.002 | [4] -0.011 | [5] -0.172

PCCA (UniProt P05165)
inactive: [1] -0.013 | [2] -0.021 | [3] -0.077 | [4] 0.034 | [5] 0.005

PDZD8 (UniProt Q8NEN9)
inactive: [1] -0.036 | [2] -0.012 | [3] -0.042 | [4] -0.013 | [5] -0.012

PDCL (UniProt Q13371)
inactive: [1] 0.05 | [2] -0.032 | [3] 0.051 | [4] -0.004 | [5] -0.01

PCIF1 (UniProt Q9H4Z3)
inactive: [1] -0.015 | [2] -0.013 | [3] 0.026 | [4] 0.066 | [5] -0.111

Reprinted at random: two records from the list, in no set order.
PCCA (UniProt P05165)
inactive: [1] -0.013 | [2] -0.021 | [3] -0.077 | [4] 0.034 | [5] 0.005

PDCL (UniProt Q13371)
inactive: [1] 0.05 | [2] -0.032 | [3] 0.051 | [4] -0.004 | [5] -0.01

Remaining list, next part.

PBK (UniProt Q96KB5)
inactive: [1] -0.002 | [2] 0.006 | [3] 0.006 | [4] 0.023 | [5] 0.029

PDHA1 isoform 4 (UniProt P08559)
inactive: [1] -0.014 | [2] 0.014 | [3] 0.01 | [4] 0.035 | [5] 0.053

PASK (UniProt Q96RG2)
inactive: [1] -0.002 | [2] -0.031 | [3] -0.031 | [4] -0.038 | [5] 0.01

PDLIM7 (UniProt Q9NR12)
inactive: [1] 0.009 | [2] 0.041 | [3] 0.017 | [4] 0.023 | [5] 0.004

PCBP2 isoform 3 (UniProt Q15366)
inactive: [1] -0.011 | [2] 0.017 | [3] -0.041 | [4] 0.061 | [5] 0.05

PER3 isoform 2 (UniProt P56645)
inactive: [1] 0.007 | [2] -0.029 | [3] -0.054 | [4] 0.094 | [5] -0.004

PFN1 (UniProt P07737)
inactive: [1] -0.004 | [2] 0.009 | [3] 0 | [4] -0.004 | [5] -0.007

PGAM1 (UniProt P18669)
inactive: [1] 0.015 | [2] -0.026 | [3] -0.03 | [4] -0.029 | [5] 0.014

PDSS1 (UniProt Q5T2R2)
inactive: [1] -0.082 | [2] 0.054 | [3] 0.21 | [4] -0.13 | [5] -0.013

PCYT2 isoform 3 (UniProt Q99447)
inactive: [1] -0.017 | [2] 0.04 | [3] 0.012 | [4] -0.033 | [5] 0.004

PGGHG (UniProt Q32M88)
inactive: [1] 0.024 | [2] 0.026 | [3] -0.01 | [4] -0.017 | [5] -0.02
